From PMC10363799
No constants are given. Whether binding was seen depends on the method and setting. Binding seen in cells or lysates may run through a third protein. These calls come from enrichment with a bait or labelling near it, and not all partners need be listed.

The chains behind the UniProt entries cited, without tags or fusion partners.
UniProt P45974: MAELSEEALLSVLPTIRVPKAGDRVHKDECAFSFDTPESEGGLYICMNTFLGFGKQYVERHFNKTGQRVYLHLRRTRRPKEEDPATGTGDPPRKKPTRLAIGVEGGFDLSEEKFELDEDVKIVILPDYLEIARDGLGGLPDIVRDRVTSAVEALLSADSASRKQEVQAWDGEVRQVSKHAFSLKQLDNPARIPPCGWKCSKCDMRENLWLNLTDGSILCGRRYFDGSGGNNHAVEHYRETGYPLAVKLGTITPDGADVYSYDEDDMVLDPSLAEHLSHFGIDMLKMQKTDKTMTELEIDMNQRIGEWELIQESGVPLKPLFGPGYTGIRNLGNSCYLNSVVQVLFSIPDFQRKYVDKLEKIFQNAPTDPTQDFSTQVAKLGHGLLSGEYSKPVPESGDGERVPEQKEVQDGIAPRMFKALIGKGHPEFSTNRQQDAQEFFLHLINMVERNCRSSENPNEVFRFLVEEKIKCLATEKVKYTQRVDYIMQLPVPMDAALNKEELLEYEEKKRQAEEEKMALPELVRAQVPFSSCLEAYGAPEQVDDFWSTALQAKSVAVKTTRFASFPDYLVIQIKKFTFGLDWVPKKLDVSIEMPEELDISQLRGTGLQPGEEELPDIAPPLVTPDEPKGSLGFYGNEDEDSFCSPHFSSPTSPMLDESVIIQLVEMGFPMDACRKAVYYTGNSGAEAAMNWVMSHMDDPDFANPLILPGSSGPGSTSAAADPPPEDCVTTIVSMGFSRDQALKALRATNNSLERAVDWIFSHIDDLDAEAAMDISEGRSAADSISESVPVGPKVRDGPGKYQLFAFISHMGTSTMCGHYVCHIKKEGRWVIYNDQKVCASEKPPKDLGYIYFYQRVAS

Molecular target: T1, Lymphoid-specific helicase (LSH), stably expressed in 293T cells (UniProt Q9NRZ9)
T1 sequence: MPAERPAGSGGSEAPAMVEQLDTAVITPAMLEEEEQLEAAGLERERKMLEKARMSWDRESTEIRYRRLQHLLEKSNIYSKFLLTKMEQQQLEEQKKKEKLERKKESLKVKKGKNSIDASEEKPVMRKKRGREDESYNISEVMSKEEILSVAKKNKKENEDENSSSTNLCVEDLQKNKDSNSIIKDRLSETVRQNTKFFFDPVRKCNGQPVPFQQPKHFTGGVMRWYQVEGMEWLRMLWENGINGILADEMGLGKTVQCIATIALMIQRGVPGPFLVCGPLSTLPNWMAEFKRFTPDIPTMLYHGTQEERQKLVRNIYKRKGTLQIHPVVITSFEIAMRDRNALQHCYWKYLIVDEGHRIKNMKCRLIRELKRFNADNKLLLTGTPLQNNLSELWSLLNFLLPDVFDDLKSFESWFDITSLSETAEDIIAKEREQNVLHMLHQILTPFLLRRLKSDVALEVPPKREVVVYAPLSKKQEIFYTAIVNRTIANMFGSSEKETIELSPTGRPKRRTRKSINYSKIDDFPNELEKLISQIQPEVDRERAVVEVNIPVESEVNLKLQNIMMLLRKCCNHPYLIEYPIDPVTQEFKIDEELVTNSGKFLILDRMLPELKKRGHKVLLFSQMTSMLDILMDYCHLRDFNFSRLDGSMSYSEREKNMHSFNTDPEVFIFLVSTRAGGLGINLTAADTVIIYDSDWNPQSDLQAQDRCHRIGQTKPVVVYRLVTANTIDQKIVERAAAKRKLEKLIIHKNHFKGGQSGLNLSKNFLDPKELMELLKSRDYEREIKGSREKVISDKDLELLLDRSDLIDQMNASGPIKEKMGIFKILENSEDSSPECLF
Assay: affinity purification with mass spectrometry; LSH-interacting proteins identified by mass spectrometry in 293T cells stably expressing LSH

With “Ubiquitin-specific protease 5 (USP5), endogenous in 293T cells (from UniProt P45974 1-858) (enzyme)” as the substance, how does the binding read?
The binding was “binds”.
